Assay: Stilbenoid levels in batch culture of PALCPR-evolved-III with nonyl-acetate vs control (HPLC)
Set-up: species or system S. cerevisiae
Description: A Phenomenex (Torrance, Calif., USA) Luna 3 micrometer C18 (100×2.00 mm) column was used at 60° C. As mobile phase a gradient of acetonitrile and milliq water (both containing 50 ppm trifluoroacetic acid) was used at a flow of 0.4 ml/min. The gradient profile was linear from 15% acetonitrile to 100% acetonitrile over 20 min.
The stirrer speed was instantly set at 800 rpm. […] The cultivation will be referred to as PALCPR-solvent. […] The cultivation will be referred to as PALCPR-control.
For the determination of stilbenoids, an aliquot of 25 ml of cell broth was collected, and phase separation was initiated by centrifugation at 3500 g for 5 minutes. Both the upper nonylacetate phase and the lower aqueous medium phase were collected separately with a pipette and directly analyzed for their content of stilbenoids and intermediates by HPLC.

SMILES: O=C(O)C=Cc1ccccc1 [Cinnamic acid, cinnamic acid]
- Supernatant (PALCPR-control (PALCPR-evolved-III), no solvent): 76.36 mg/L
- Upper phase (0.1 L) concentration (PALCPR-solvent (PALCPR-evolved-III), 100 ml nonyl-acetate from start): 252.82 mg/L
- Lower phase (1 L) concentration (PALCPR-solvent, aqueous phase, nonyl-acetate): 60.05 mg/L
- Total produced in 1 L, % total (PALCPR-solvent, nonyl-acetate): 100 % total
- Total produced in 1 L (PALCPR-solvent, nonyl-acetate, upper/10 + lower): 85.33 mg/L
